Experimental data reported in publication PMC8074145.
No constants are given. Whether binding was seen depends on the method and setting. Some entries that bind do so weakly or less than the wild type.

Chains of the proteins cited; added tags and fusions are not shown.
UniProt P09382: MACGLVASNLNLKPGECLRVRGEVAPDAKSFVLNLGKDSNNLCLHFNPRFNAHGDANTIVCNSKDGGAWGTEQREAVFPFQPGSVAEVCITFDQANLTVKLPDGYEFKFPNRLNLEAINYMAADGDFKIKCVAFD

How the values were obtained:
[1] = biological target: T1, Asialofetuin (UniProt P12763); assay: peptide or protein array; asialofetuin printed at 0.03, 0.1, 0.3 and 1 mg/mL on nitrocellulose-coated slides; overlaid 2 h with 20 ug/mL Gal-1 in PBS (5 mM sodium phosphate pH 7.2, 0.2 M NaCl), 0.1% Tween-20, 1 mM DTT, 20 C; detected with biotin-labelled anti-human galectin 1 and AF647-streptavidin; with or without 75 mM lactose plus 1 mg/mL asialofetuin in solution; both purified
T1 sequence: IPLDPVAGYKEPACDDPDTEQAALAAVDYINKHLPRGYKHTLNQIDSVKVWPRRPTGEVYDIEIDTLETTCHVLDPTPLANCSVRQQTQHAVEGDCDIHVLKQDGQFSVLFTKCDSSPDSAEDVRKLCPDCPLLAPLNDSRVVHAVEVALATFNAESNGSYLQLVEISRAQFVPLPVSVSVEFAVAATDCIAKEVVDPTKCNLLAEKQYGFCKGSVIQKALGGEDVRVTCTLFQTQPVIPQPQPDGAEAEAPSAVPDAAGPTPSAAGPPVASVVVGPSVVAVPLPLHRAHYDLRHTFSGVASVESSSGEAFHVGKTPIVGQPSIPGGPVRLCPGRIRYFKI

[2] = biological target: T1, Asialofetuin; assay: peptide or protein array; asialofetuin printed on nitrocellulose-coated slides; overlaid with biotinylated in-house Gal-1; detected with fluorescently labelled streptavidin, no anti-Gal-1 antibody; both purified

binding [1] | binding [2] | Substance
binds |  | Human galectin-1 (unlabelled, ATGen) (from UniProt P09382 1-135)
 | binds | Recombinant human galectin-1, in-house preparation, biotinylated (from UniProt P09382 1-135)
